Library screen at single concentrations

By UniProt entry, the sequences of proteins in these tests, tags left out. Residues count along the entry.
UniProt P9WPC5, whole entry: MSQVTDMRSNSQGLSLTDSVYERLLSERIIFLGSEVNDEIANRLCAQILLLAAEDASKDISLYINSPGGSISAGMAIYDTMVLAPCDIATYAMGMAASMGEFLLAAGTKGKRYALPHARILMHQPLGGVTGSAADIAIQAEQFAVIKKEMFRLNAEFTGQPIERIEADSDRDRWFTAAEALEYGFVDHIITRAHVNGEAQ
UniProt P9WPC3, whole entry partner: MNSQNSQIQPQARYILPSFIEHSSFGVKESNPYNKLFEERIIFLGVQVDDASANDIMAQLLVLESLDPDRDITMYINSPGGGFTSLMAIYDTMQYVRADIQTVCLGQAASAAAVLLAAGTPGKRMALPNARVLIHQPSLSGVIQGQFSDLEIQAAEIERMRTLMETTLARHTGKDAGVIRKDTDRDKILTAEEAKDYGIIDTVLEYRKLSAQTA
UniProt I6X8D2, whole entry: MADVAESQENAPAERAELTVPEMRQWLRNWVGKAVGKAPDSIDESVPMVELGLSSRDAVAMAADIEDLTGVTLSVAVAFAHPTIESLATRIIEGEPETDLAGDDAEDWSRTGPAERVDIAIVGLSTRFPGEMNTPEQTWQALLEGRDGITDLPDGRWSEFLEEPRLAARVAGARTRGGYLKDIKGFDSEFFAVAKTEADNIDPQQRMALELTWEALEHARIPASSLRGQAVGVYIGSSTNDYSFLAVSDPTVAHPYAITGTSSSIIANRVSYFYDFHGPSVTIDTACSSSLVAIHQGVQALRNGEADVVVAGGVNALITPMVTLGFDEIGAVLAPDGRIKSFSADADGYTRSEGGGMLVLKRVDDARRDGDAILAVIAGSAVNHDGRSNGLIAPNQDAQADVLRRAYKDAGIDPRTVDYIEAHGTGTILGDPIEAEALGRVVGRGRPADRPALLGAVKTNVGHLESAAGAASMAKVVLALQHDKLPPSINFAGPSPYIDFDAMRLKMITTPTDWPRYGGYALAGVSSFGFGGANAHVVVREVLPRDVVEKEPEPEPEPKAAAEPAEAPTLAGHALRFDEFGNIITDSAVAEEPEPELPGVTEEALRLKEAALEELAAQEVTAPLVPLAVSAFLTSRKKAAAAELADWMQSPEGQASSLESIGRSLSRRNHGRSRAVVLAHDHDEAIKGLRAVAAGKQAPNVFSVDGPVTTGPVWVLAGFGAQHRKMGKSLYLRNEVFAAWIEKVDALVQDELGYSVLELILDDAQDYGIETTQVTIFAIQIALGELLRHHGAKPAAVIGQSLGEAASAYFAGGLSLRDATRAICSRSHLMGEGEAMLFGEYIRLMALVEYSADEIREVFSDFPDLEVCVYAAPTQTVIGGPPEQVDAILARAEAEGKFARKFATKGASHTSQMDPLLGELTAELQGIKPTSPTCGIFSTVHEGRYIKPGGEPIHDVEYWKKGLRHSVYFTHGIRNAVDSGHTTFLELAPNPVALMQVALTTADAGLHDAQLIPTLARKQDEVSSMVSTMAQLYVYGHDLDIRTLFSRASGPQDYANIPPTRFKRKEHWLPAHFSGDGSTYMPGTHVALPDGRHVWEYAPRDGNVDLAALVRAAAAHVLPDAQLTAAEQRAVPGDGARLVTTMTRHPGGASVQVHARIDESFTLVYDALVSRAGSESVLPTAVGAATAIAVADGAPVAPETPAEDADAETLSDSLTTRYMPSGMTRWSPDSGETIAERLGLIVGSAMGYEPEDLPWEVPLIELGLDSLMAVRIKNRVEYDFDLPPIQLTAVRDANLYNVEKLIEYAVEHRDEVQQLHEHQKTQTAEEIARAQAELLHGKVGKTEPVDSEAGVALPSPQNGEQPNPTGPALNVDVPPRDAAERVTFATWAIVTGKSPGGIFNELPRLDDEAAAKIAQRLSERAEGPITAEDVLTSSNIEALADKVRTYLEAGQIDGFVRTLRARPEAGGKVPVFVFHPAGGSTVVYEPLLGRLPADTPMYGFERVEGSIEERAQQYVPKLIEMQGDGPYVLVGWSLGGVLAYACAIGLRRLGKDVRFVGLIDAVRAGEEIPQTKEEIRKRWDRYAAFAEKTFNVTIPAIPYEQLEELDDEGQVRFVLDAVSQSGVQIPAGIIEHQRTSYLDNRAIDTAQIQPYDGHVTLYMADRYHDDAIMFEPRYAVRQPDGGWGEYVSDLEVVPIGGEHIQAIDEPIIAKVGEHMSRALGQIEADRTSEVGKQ
UniProt Q8IDJ8, 1-583: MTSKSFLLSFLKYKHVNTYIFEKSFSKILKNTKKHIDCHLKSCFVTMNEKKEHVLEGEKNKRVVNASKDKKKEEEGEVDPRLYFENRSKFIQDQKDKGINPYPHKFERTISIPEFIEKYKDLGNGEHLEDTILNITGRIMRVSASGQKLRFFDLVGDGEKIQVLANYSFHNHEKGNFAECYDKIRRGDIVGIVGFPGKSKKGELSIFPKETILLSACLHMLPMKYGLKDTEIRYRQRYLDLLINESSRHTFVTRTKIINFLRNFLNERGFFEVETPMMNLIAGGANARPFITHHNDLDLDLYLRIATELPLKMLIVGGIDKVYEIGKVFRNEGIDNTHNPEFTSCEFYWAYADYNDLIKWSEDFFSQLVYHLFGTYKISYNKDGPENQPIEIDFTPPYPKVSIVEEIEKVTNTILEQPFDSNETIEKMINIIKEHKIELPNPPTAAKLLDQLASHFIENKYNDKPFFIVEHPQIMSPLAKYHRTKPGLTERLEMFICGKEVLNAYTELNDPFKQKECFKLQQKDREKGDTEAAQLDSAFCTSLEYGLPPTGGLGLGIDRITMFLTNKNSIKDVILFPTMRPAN

Data taken from ChEMBL document CHEMBL3988442, “University of Dundee, Small-Polar-MMV Screening Library” (2021).

ClpP1P2: 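Protease assay of ClpP1P2, read by the AMC dye that it sets free. Target: ClpP1P2, Mycobacterium tuberculosis (UniProt P9WPC5 and UniProt P9WPC3). Compounds at 50 µM. Direction is inferred from only a few compounds that gave an IC50; most scored high, so higher reads as stronger inhibition. Most other retested compounds had strongly negative values. Size under these conditions: about 69,000 compounds, about 10 of them at 50% or above in at least one test.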
Leishmania in macrophages: 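Cell assay of Leishmania donovani living inside macrophages; the read-out is not stated. Compounds at 30 µM. Direction is inferred from retests: higher values go with stronger inhibition. About 69,000 compounds were tested under these conditions; 1.5% (about 1,000) showed 50% or more at least once.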
Pks13 thioesterase: 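Polyketide synthase Pks13, Mycobacterium tuberculosis (UniProt I6X8D2). Enzyme assay of the thioesterase domain of polyketide synthase 13; the read-out is not stated. Concentration: 30 µM. The record gives no direction; the compounds picked for IC50 retests had high values, so higher reads as stronger inhibition. Of about 67,000 compounds tested this way, about 300 (0.46%) reached 50% or more in at least one test.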
PfKRS1: 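Enzyme assay of the cytosolic lysyl-tRNA synthetase in 384-well plates, read by luminescence. Target: Lysine-tRNA ligase, Plasmodium falciparum 3D7 (UniProt Q8IDJ8). Compounds at 30 µM. Higher reads as stronger inhibition, judged from the few compounds that gave an IC50. Size under these conditions: about 69,000 compounds, about 49 of them at 50% or above in at least one test.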
Toxoplasma: 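Assay of Toxoplasma gondii numbers, read through their beta-galactosidase reporter with a colour substrate. Concentration: 10 µM. Higher reads as fewer parasites (inferred from which compounds were picked for retests). Size under these conditions: about 67,000 compounds, about 260 of them at 50% or above in at least one test.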

Each number is a percent effect as filed. The record does not define 0% and 100%; most values in the screen are far below 50% and negative numbers occur (in some assays of this library far below -100). This is an unselected part of the compounds tested. Two or more numbers in one place are separate tests of the same structure; such repeats can differ widely. A dash means the value is not listed here; it may have been measured.

| structure | ClpP1P2 | Leishmania in macrophages | Pks13 thioesterase | PfKRS1 | Toxoplasma |
|---|---|---|---|---|---|
| `Cc1cc(S(=O)(=O)NC(=O)CCc2cncc(F)c2)c(C)s1` | -5.597 | 0.6023 | -7.272 | 5.735 | -3.409 |
| `Cc1nc(CN2CC3(CCN(c4cnccn4)C3)CC2=O)cs1` (centres unmarked) | -1.603 | - | 15.43 | 1.392 | - |
| `COC(=O)CN1CCCn2nc(CCC(=O)N3CCCC3)cc2C1` | 2.147 | 13.27 | -9.616 | 7.157 | 31.72 |
| `Cc1nccn1-c1cc(CNC(=O)c2ccnc(N(C)C)c2)ccn1` | -13.59 | -2.437 | 3.055 | 0.2058 | 8.575 |
| `CCc1cnc(CN(C(C)=O)C2CCN(CC3(O)CCCCC3)C2)o1` (centres unmarked) | -16.33 | -0.1137 | -21.38 | -1.371 | -8.543 |
| `Cc1noc(NC(=O)c2cccc(Br)c2)n1` | -8.645 | 3.598 | -30.32 | 1.098 | 30.02 |
| `Cc1ccc(-c2nc(CN3CCn4c(nnc4C4CC4)C3)co2)c(C)c1` | -21.99 | 13.19 | -10.99 | 1.308 | 0.7549 |
| `CSc1ccc(C(C(=O)O)N2CCOCC2)cc1` (centres unmarked) | -14.63 | -14.17 | -21.7 | 5.962 | -3.328 |
| `COC(=O)CN1CCCN(C(=O)CCOc2cccc(C)c2C)CC1` | -23.5 | -10.63 | 3.001 | 2.381 | 10.56 |
| `Cc1ccc(N2Cc3cnn(C)c3C(COCC3CC3)C2)nn1` (centres unmarked) | 2.356 | - | -3.045 | 4.204 | - |
| `O=C1COC2(COCCN(c3cnccn3)C2)CN1c1cccc(F)c1` (centres unmarked) | -5.027 | -3.481 | 11.67 | 11.07 | 14.37 |
| `CCCc1cc(C(=O)N2CCOC(c3nc(-c4cccs4)no3)C2)no1` (centres unmarked) | 3.259 | 23.21 | -1.422 | 6.064 | 0.8856 |
| `Cc1ncc(CN2CC[C@@](C)(O)[C@H](Oc3cccc(F)c3)C2)cn1` | -0.3217 | 28.28 & -6.305 | -17.06 | -2.267 | -0.1436 |
| `CNC(=O)CN1CCOCC2(CCCN(Cc3ccc(F)cc3)C2)C1.O=C(O)C(F)(F)F.O=C(O)C(F)(F)F` (centres unmarked) | - | -0.99 | - | - | 11.07 |
| `CCCNC(=O)NC(=O)CNc1c(F)cccc1N1CCCC1` | -0.6151 | -9.496 | 11.74 | 5.326 | 9.68 |
| `CC(C)CNS(=O)(=O)c1ccc(C(=O)N(C)CCc2cn[nH]c2)cc1` | -5.804 | 17.07 | -10.98 | -0.4316 | -37.39 |
| `COc1cccc(N2CCN(Cc3ccc4[nH]ccc4c3)CC2=O)c1` | -3.73 | -9.349 | -3.935 | -1.454 | 21.29 |
| `O=C(Cc1ccc(Br)s1)NCC(=O)Nc1cn[nH]c1` | -2.085 | 5.817 | -11.9 | 5.753 | -0.4823 |
| `CC(Cc1ccco1)NC(=O)Nc1cnn(CC(N)=O)c1` (centres unmarked) | 0.8923 | -2.613 | -3.613 | 7.38 | -3.993 |
| `c1ccc(C2CCCN(c3ncnc4c3CCNC4)CC2)cc1` (centres unmarked) | -5.065 | 74.19 | -2.732 | 1.007 | 25.28 |
| `CC(=O)N1CCCCC1c1nc(N)ncc1-c1ccccc1` (centres unmarked) | 9.774 | 18.94 | -80.43 | 3.873 | 3.494 |
| `CCNS(=O)(=O)C1CCN(C(=O)c2ccc(CC)o2)C1` (centres unmarked) | -2.049 | 16.8 | -29.87 | -0.2977 | 4.964 |
| `CN(Cc1ccco1)[C@@H]1CN(Cc2cnn(C)c2)[C@@H]2CCCO[C@H]12` | 3.943 | - | 2.331 | 3.258 | - |
| `COc1ccc(CC(C)Nc2cccc(F)c2)cc1` (centres unmarked) | 16.88 | -29.81 | 8.516 | 0.5769 | 17.74 |
| `O=C(NCCCn1ccnc1)Nc1ccn(CCc2ccccn2)n1` | 2.199 | 5.108 | -52.29 | 2.674 | 4.846 |
| `CN(CC(C)(CO)CO)C(=O)Nc1cc(F)cc(Cl)c1` | 2.995 | -1.931 | 2.669 | -0.3658 | -1.013 |
| `Cc1noc(C)c1CC(=O)N1CCCC(c2noc(C(C)C)n2)C1` (centres unmarked) | -0.9434 | 33.94 | -38.28 | 8.248 | 2.245 |
| `Cc1cc(NCc2cn(C)nc2-c2cccnc2)n(C)n1` | -1.097 | -18.07 | -11.89 | 7.291 | - |
| `O=C(c1cc(COc2ccc3c(c2)OCO3)[nH]n1)N1CCCCO1` | -16.47 | 5.936 | -22.64 | 1.521 | 26.66 |
| `CC(C)c1cc(C(=O)NCc2nc(-c3ccc(F)cc3)n[nH]2)n[nH]1` | 2.802 | 20.11 | -36.63 | 0.2079 | -2.163 |
| `Cc1ccc(-n2ccnc2)c(C(=O)NCCOCC(F)(F)F)c1` | 8.995 | -19.69 | -15.29 | 4.01 | -9.167 |
| `CN1CCc2nc(C3CCN(C(=O)CCC4CCCC4)CC3)ncc2C1` | 6.046 | 25.11 | -49.28 | 2.872 | -0.8319 |
| `O=C(NC1CCCC1)C1(Cc2cc(C3CCOC3)no2)CCNCC1` (centres unmarked) | -25.44 | - | 1.641 | 0.2593 | - |
| `Fc1cccc(CNCC2OCCc3cn(CC4CCOCC4)nc32)c1` (centres unmarked) | -7.751 | - | -17.07 | -0.8127 | - |
| `CS(=O)(=O)c1cccc(C(=O)NCc2nc3cc(F)ccc3[nH]2)c1` | -13.49 | -10.42 | -7.117 | -3.429 | -11.06 |
| `CCOc1ccccc1-c1noc(CN(C)Cc2cnn(C)c2)n1` | - | -8.696 | -16.66 | -3.469 | -4.732 |
| `Cn1ccc(-c2cc(C(=O)N3CCC(O)CC3)c3ccccn23)n1` | -245.5 | 15.86 | -23.27 | -1.398 | -23.23 |
| `CCN1Cc2cc(F)ccc2N(CC(O)C(F)(F)F)CCC1=O` (centres unmarked) | 9.318 | 5.117 | 0.9184 | 8.641 | -7.528 |
| `CN(Cc1ccc2c(c1)OCO2)Cc1cscn1` | 4.964 | 10.13 | 8.11 | -0.7168 | 6.177 |
| `CC(NC(=O)COc1ccccc1Cl)c1nnc2n1CCC2` (centres unmarked) | -12.09 | 2.898 | -16.55 | 5.831 | -5.894 |
| `Cc1nc(COCc2cnc3n2CCN(C2CCC2)C3C)cs1` (centres unmarked) | 2.536 | - | -12.83 | -1.519 | - |
| `CN1CCOCC12CCN(Cc1ccoc1)CC2` | 7.824 | - | 8.261 | 4.397 | - |
| `CCN1CCCn2c(nc(CNC(=O)c3cnoc3C)cc2=O)C1` | 5.823 | - | -0.06905 | 4.227 | - |
| `CCCS(=O)(=O)N1C[C@H]2C[C@H](C(=O)N3CCOCC3)[C@@H](C1)O2` | 11.6 | - | -22.85 | 10.62 | - |
| `CN(C)c1cccc(C2CCCN2S(N)(=O)=O)c1` (centres unmarked) | 3.148 | 25.4 | -45.07 | -0.6628 | -2.567 |
| `O=C1Nc2ccccc2NC12CCN(Cc1nnc(C3CC3)o1)CC2` | 7.182 | 28.13 | -9.327 | 1.524 | 8.393 |
| `COCC(=O)N1CCCC2(CCN(c3cncnc3)C2=O)C1` (centres unmarked) | -7.313 | 26.31 | -7.351 | 0.09872 | 10.68 |
| `CNC(=O)[C@H]1C[C@H]2OCC[C@H]2N(Cc2cccc3ccccc23)C1` | -11.57 | - | -13.98 | 1.593 | - |
| `CCNC(=O)Nc1ccc2c(ccn2CC(=O)N(CC)CC)c1` | 13.05 | -2.349 | 4.84 | 9.398 | 3.952 |
| `O=C(c1ccco1)N1CCOCC2(C1)CN(c1ccoc1)C(=O)CO2` (centres unmarked) | -11.63 | 15.48 | -21.35 | -0.4482 | 3.632 |
| `c1ccc2oc(N3CCC(c4nncn4C4CC4)CC3)nc2c1` | -3.467 | -5.283 | -14.84 | -4.871 | -33.04 |
| `COCC(=O)N(C)Cc1ccc(F)c(F)c1` | -5.875 | -8.606 | 14.42 | 0.7458 | -25.36 |
| `O=C(O)C(F)(F)F.O=C(O)C(F)(F)F.[H][C@@]12CCC(=O)N(c3cnn(C)c3)[C@]1([H])CCN2Cc1ccncc1` | - | 15.6 | - | - | 2.671 |
| `O=C(Nc1ccc(CCN2CCC(O)CC2)cc1)C1CCOCC1` | -1.947 | 17.46 | -1.292 | -0.02491 | 8.508 |
| `Cc1noc(C)c1CCC(=O)N1CCN(Cc2cscn2)CC1` | -32.43 | -0.8723 | 0.3068 | 0.4737 | -10.66 |
| `Cc1noc([C@@]23CCO[C@@H]2CCN(C(=O)CCC(C)C)C3)n1` | -6.673 | - | 4.099 | -1.496 | - |

Some entries from above, unchanged:

structure,ClpP1P2,Leishmania in macrophages,Pks13 thioesterase,PfKRS1,Toxoplasma
Cc1nc(COCc2cnc3n2CCN(C2CCC2)C3C)cs1 (centres unmarked),2.536,-,-12.83,-1.519,-
O=C(O)C(F)(F)F.O=C(O)C(F)(F)F.[H][C@@]12CCC(=O)N(c3cnn(C)c3)[C@]1([H])CCN2Cc1ccncc1,-,15.6,-,-,2.671
CN(Cc1ccco1)[C@@H]1CN(Cc2cnn(C)c2)[C@@H]2CCCO[C@H]12,3.943,-,2.331,3.258,-
Cc1ccc(N2Cc3cnn(C)c3C(COCC3CC3)C2)nn1 (centres unmarked),2.356,-,-3.045,4.204,-
CN1CCOCC12CCN(Cc1ccoc1)CC2,7.824,-,8.261,4.397,-